Test results taken from PubChem BioAssay AID1688 (National Center for Advancing Translational Sciences (NCATS), 2009).
Among all 220,000 compounds or so, about 2,400 (1.1%) were called active. Inconclusive means that the source gave no clear call. Such entries were picked first, then a sample of the others. Calls follow the shape of the dose curve; as a rule, active = well fitted inhibition curve with a large enough effect; inconclusive = small, poorly fitted or top-dose-only effect, or effect the other way; inactive = no such curve, though single readings can be large or run the other way. Where the call is inconclusive, the potency comes from a doubtful curve fit.
% is scaled to controls: 0 for no effect and ±100 for the full control effect; potency is read from the fitted curve at half-maximal effect.

Experiment: qHTS Multiplex Assay to Identify Dual Action Probes in a Cell Model of Huntington: Aggregate Formation (GFP); also: nearly all actives have a fitted effect of over 60% in size
Conditions: PC12 HttQ103-GFP aggregates, Acumen cytometry, 40 h; activity change, negative = inhibition: at 46.1 µM (top of the series) unless noted
Procedure, shortened: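 PC12 cells stably carrying ecdysone-inducible HTT exon 1 Q103–GFP were induced with tebufenozide (100 nM final) and treated with library compounds in titration. GFP aggregates in lysates were counted by laser scanning cytometry.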
For `O=C(N/N=C/c1c(F)c(F)c(F)c(F)c1F)c1ccc(Cn2cc(Br)cn2)o1`, the “activity change, negative = inhibition” value was inactive: -10.6%.
For `CC(=O)C1=C(c2cccc([N+](=O)[O-])c2)N(C(C)=O)n2c(C)nnc2S1`, the Potency was inconclusive: 7.08 µM [inhibitor, partial curve].
With `COc1ccccc1-c1nnc2n1N=C(c1ccc(O)c(O)c1)CS2` the Potency was inconclusive: 1.26 µM [activator, full curve, poor fit].
For `OCCNc1nc(Nc2ccc(Br)cc2)nc2ccccc12`, the Potency was inconclusive: 25.1 µM [inhibitor, partial curve].
With `Cc1ccc(NC(=S)N/N=C/c2c(Cl)cccc2Cl)c(C)c1` the Potency was inconclusive: 11.2 µM [activator, single point].
With `COc1ccccc1S(=O)(=O)Nc1cccc(-c2nnc3n2CCCCC3)c1` the Potency was inconclusive: 12.6 µM [activator, single point].
With `CC(C)c1ccc(N=C2NN=C(c3cccs3)CS2)cc1` the Potency was inconclusive: 35.5 µM [inhibitor, single point].
With `C#C[C@]1(O)CC[C@@H]2[C@H]3CCC4=CC(=O)CC[C@H]4[C@H]3C(=C)C[C@@]21CC` the “activity change, negative = inhibition” value was inactive: 18.5%.
In the case of `O=C(NCc1ccc2c(c1)OCO2)C(=S)N1CCOCC1`, the activity change, negative = inhibition is reported as inactive: 20.1% [at 9.22 µM].
With `COC(=O)c1[nH]c2ccc(C)cc2c1NC(=O)CN1CCN(c2ccc(F)cc2)CC1` the “activity change, negative = inhibition” value was inactive: -27%.
In the case of `FC(F)(F)c1cccc(OCCN2CCN(Cc3ccccc3)CC2)c1`, the Potency is reported as inconclusive: 2.51 µM [inhibitor, full curve].
For `Cc1ccc2nc(C(F)(F)F)c(C#N)c(N)c2c1`, the Potency was inconclusive: 17.8 µM [inhibitor, single point].
In the case of `CCOC(=O)c1[nH]c2c(c1C)C(=O)CC(c1ccco1)C2` (stereo not given), the Potency is reported as inconclusive: 1.78 µM [inhibitor, partial curve].
With `CC(=O)Oc1cccc2c1C(=O)c1c(OC(C)=O)cc(C(=O)O)cc1C2=O` the Potency was inconclusive: 35.5 µM [inhibitor, single point].
For `O=C1CCCc2nn(-c3ccccc3)nc21`, the Potency was inconclusive: 35.5 µM [inhibitor, partial curve, poor fit].
For `C=CCN(c1ccccc1)S(=O)(=O)c1cccc(C(=O)Nc2nc3ccccc3[nH]2)c1`, the Potency was inconclusive: 8.91 µM [inhibitor, partial curve].
With `CCC(=O)NC(=S)Nc1cccc(NC(=O)c2ccccc2)c1` the Potency was inconclusive: 2.51 µM [activator, full curve, poor fit].
With `CCOC(=O)CSC1=C(C#N)C(c2ccc(OC)cc2)C2=C(CC(C)(C)CC2=O)N1` (stereo not given) the “activity change, negative = inhibition” value was inactive: 19.4%.
For `CC(=O)c1sc(NC(=O)c2ccccc2F)nc1C`, the Potency was inconclusive: 0.501 µM [inhibitor, full curve, poor fit].
In the case of `O=C(Nc1ccon1)c1ccc(S(=O)(=O)N2CCCCCC2)cc1`, the Potency is reported as inconclusive: 0.562 µM [activator, single point].
For `CCOCCCn1c(SCc2nc3ccccc3s2)nc2ccccc2c1=O`, the Potency was inconclusive: 5.62 µM [inhibitor, single point].
With `Cc1ccc[n+](CC(=O)/C=C2\N(C)c3ccccc3C2(C)C)c1` the Potency was inconclusive: 6.31 µM [inhibitor, full curve, poor fit].
In the case of `Cc1occc1C(=O)NC(C)C(C)(C)C` (stereo not given), the “activity change, negative = inhibition” value is reported as inactive: 20.9%.
In the case of `Cc1cc2ccccc2c(=O)n1CC(=O)N1CCN(c2cccc(Cl)c2)CC1`, the “activity change, negative = inhibition” value is reported as inactive: -1.13%.
With `COc1ccccc1NS(=O)(=O)c1cc(NC(=O)CNC(=O)c2ccccc2)ccc1C` the Potency was inconclusive: 1.78 µM [activator, partial curve].
With `COc1ccc(NC(=O)CSc2ccc3nnc(-c4cccnc4)n3n2)c(OC)c1` the “activity change, negative = inhibition” value was inactive: -10.2%.
For `Cc1ccc(C)c(N(CC(=O)NC2CCCC2)C(=O)c2oc(C(C)(C)C)cc2C)c1`, the Potency was active: 25.1 µM.
In the case of `CN(C)CCCNc1ccc(-c2nn(C)c(=O)c3ccccc23)cc1[N+](=O)[O-]`, the “activity change, negative = inhibition” value is reported as inactive: 6.09%.
For `CCN(CC)S(=O)(=O)c1ccc(OC)c(NC(=O)/C=C/c2ccco2)c1`, the Potency was inconclusive: 3.16 µM [activator, single point].
With `CCS(=O)(=O)N1CCN(c2ccc(C(=O)NC3C4CC5CC(C4)CC3C5)cc2[N+](=O)[O-])CC1` (stereo not given) the Potency was inconclusive: 28.2 µM [inhibitor, single point].
With `CCCN(CCC)CCCNC(=S)Nc1ccc2nc(N3CCCC3)cc(C)c2c1` the Potency was inconclusive: 35.5 µM [inhibitor, single point].
For `CCOC(=O)c1ccc(Oc2nc(N(C)C)nc(N3CCOCC3)n2)cc1`, the activity change, negative = inhibition was inactive: -15% [at 9.22 µM].
In the case of `CN1C(=O)CSc2ccc(NC(=O)N3CCN(c4ccccn4)CC3)cc21`, the Potency is reported as inconclusive: 5.01 µM [activator, full curve].
For `Cc1cc(C)c2nc(C(F)(F)F)nc(NCCCN3CCCC3=O)c2c1`, the Potency was inconclusive: 10 µM [inhibitor, partial curve].
In the case of `CC(=O)c1cccc(NC(=O)Nc2cccs2)c1`, the Potency is reported as active: 12.6 µM.
In the case of `CC1(C(=O)OCc2cc(=O)n3cc(Br)ccc3n2)CC1(Cl)Cl` (stereo not given), the “activity change, negative = inhibition” value is reported as inactive: 12.2%.
In the case of `O=c1[nH]nc(Cc2ccc(-c3cccc(Cl)c3)o2)c2ccccc12`, the Potency is reported as inconclusive: 28.2 µM [inhibitor, partial curve].
For `COc1ccc(-c2c(C#N)c(SCC(N)=O)nc3c2CCCC3)cc1`, the “activity change, negative = inhibition” value was inactive: 7.23%.
With `Cc1cc(C)c(S(=O)(=O)ON2C(=O)c3ccccc3C2=O)cc1C` the Potency was inconclusive: 20 µM [activator, single point].
With `COc1ccccc1NC(=O)CC1C(=O)Nc2c1c(=O)n(C)c(=O)n2C` (stereo not given) the Potency was inconclusive: 35.5 µM [inhibitor, single point].
For `COc1ccc(/C=N/NC(=O)Cn2c(Cc3ccc(OC)c(OC)c3)nc3ccccc32)cc1OC`, the Potency was inconclusive: 31.6 µM [activator, single point].
With `O=C(NCc1ccccc1)C1CCN(S(=O)(=O)N2CCCCCC2)CC1` the “activity change, negative = inhibition” value was inactive: -15.4%.
In the case of `COc1cc2c(cc1OC)C(C)N(C(=O)c1cccc([N+](=O)[O-])c1)CC2` (stereo not given), the Potency is reported as inconclusive: 22.4 µM [inhibitor, single point].
For `CCCCCOc1ccc(CSCCNC(=S)Nc2ccccc2)cc1`, the Potency was inconclusive: 25.1 µM [inhibitor, single point].
With `COc1ccc(-n2c(COc3cccc(C)c3)nnc2SCC(=O)NCc2ccco2)cc1` the Potency was inconclusive: 35.5 µM [inhibitor, single point].
In the case of `Cc1oc(-c2ccc(Cl)cc2)nc1CN1CCCC(C(=O)NCc2cccnc2)C1` (stereo not given), the Potency is reported as inconclusive: 11.2 µM [inhibitor, single point].
For `CCCc1cc(=O)[nH]c(SCC(=O)C(C)(C)C)n1`, the activity change, negative = inhibition was inactive: 19.9% [at 9.22 µM].
For `COc1ccc(-n2cc(-c3ccccc3)nc2SC)cc1`, the “activity change, negative = inhibition” value was inactive: 4.34%.
With `Cc1nc2ccccc2c2oc(C(=O)NCc3ccc4c(c3)OCO4)cc12` the Potency was inconclusive: 15.8 µM [inhibitor, single point].
In the case of `O=P(c1ccccc1)(c1ccccc1)c1nc(-c2ccccc2)oc1NCc1ccccc1`, the Potency is reported as active: 11.2 µM.
For `CC(C)(C)C(=O)Nc1cc(S(=O)(=O)Nc2ccc(Cl)cc2)ccc1O`, the Potency was inconclusive: 28.2 µM [inhibitor, partial curve].
For `Cc1ccc(NC(=O)Cc2ccc(-n3cccc3)cc2)c(C)c1`, the Potency was inconclusive: 3.55 µM [activator, partial curve, poor fit].
In the case of `CNc1oc(-c2ccc(OCc3ccccc3)cc2)nc1C#N`, the Potency is reported as inconclusive: 25.1 µM [inhibitor, single point].
In the case of `CC1CCCc2sc3ncn(N)c(=N)c3c21` (stereo not given), the Potency is reported as active: 1.41 µM.
In the case of `CCn1c2ccccc2c2nc3cc(C(=O)O)ccc3nc21`, the Potency is reported as inconclusive: 1.58 µM [activator, partial curve].
With `CC(C)(C)c1cc(CNC2CS(=O)(=O)C[C@@H]2O)cc(C(C)(C)C)c1O` (stereo not given in full) the Potency was inconclusive: 10 µM [activator, partial curve].
For `CN(C)S(=O)(=O)Nc1ccccc1C(N)=O`, the Potency was active: 3.55 µM.
For `CC1=C(C#N)c2nc(N)c(C#N)c(C)c2/C1=C\c1ccc(-c2ccccc2C(=O)O)o1`, the “activity change, negative = inhibition” value was inactive: 3.97%.
In the case of `Cc1c(Nc2nc3ccccc3nc2N2CCN(c3ccccc3)CC2)c(=O)n(-c2ccccc2)n1C`, the Potency is reported as inconclusive: 8.91 µM [activator, partial curve].
For `C/C(N)=C(/C#N)C(=O)CSc1nncn1-c1ccccc1`, the “activity change, negative = inhibition” value was inactive: 29.1%.
For `Cc1ccccc1NC(=O)CN1C(=O)C2C3CC(C(Br)C3Br)C2C1=O` (stereo not given), the Potency was inconclusive: 35.5 µM [activator, partial curve, poor fit].
For `O=C(Nc1cccc(S(=O)(=O)N2CCCCCC2)c1)c1cc(=O)c2ccccc2o1`, the Potency was active: 20 µM.
With `Cc1cc(N2CCCCC2)n2ncc(-c3ccc(Cl)cc3)c2n1` the Potency was inconclusive: 25.1 µM [inhibitor, single point].
For `Oc1ccccc1Nc1nc(NCc2ccccc2)c2ccccc2n1`, the Potency was inconclusive: 15.8 µM [inhibitor, single point].
In the case of `N#Cc1c2ccc(O)cc2n2ccccc12`, the Potency is reported as active: 10 µM.
For `CN(c1ccc(OCC(=O)N2CCN(c3ccc(F)cc3)CC2)cc1)S(=O)(=O)c1cccs1`, the Potency was inconclusive: 35.5 µM [inhibitor, single point].
With `COc1cccc2c1OCC(C(=O)O)C2` (stereo not given) the activity change, negative = inhibition was inactive: 8.82% [at 9.22 µM].
In the case of `O=C(c1noc2c1CCCC2)N1CCOCC1`, the Potency is reported as inconclusive: 12.6 µM [activator, partial curve].
With `O=C1[C@@H]2C(c3cccnc3)=NO[C@@H]2C(=O)N1c1ccc(Br)cc1` the activity change, negative = inhibition was inactive: 15.5% [at 9.22 µM].
With `S=c1[nH]nc(COc2ccccc2)n1/N=C/C(Cl)=C/c1ccccc1` the Potency was inconclusive: 35.5 µM [inhibitor, single point].
